Among the data in US20210071139A1 are binding values, retold here.

Sequences of proteins named here, by UniProt entry; tags and fusion partners are left off.
UniProt Q66JW3: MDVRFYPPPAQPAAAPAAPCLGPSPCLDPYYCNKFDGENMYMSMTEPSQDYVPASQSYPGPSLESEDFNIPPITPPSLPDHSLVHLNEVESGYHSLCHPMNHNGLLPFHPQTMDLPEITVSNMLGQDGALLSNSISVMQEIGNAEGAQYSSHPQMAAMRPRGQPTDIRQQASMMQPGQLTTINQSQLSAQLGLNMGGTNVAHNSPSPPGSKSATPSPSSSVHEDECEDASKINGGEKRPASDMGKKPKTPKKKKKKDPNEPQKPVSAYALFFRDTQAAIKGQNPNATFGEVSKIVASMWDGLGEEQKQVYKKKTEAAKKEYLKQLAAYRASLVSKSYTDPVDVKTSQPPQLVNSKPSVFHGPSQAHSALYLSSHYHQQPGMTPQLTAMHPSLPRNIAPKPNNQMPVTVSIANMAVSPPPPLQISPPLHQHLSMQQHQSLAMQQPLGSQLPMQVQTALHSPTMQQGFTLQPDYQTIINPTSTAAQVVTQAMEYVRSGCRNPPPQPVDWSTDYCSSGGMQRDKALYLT

No constants are given. Whether binding was seen depends on the method and setting. Binding seen in cells or lysates may run through a third protein. Some results given as binding are weak or reduced against the parent protein; the word gives no strength.

Test [1] deals with Ing4 (UniProt Q8C0D7). Nature of the test: IP of TOX from EL4 nuclear lysate, LC-MS/MS, MiST scoring.
Test [2] addresses Jade2 (UniProt Q6ZQF7). The test is described as above.

For TOX (from UniProt Q66JW3 1-526), the binding result in test [1] and in test [2] was “binds” in each case.
